No constants are given. Whether binding was seen depends on the method and setting. Some results given as binding are weak or reduced against the parent protein; the word gives no strength.
Biological target: human TLR4 (Toll-like receptor 4) on HEK293 cells expressing human TLR4-MD2-CD14 (human) (UniProt O00206)
Assay: cell adhesion assay; tritiated thymidine labelled HEK hTLR4 or HEK LacZ cells on wells coated with EDA protein

Protein sequences, listed by entry. Tags and fused reporters are not part of them. Lines headed by an entry give the natural chain unless they say otherwise; changes in a name come on top. Residues count along the entry.
UniProt O00206, residues 24-839: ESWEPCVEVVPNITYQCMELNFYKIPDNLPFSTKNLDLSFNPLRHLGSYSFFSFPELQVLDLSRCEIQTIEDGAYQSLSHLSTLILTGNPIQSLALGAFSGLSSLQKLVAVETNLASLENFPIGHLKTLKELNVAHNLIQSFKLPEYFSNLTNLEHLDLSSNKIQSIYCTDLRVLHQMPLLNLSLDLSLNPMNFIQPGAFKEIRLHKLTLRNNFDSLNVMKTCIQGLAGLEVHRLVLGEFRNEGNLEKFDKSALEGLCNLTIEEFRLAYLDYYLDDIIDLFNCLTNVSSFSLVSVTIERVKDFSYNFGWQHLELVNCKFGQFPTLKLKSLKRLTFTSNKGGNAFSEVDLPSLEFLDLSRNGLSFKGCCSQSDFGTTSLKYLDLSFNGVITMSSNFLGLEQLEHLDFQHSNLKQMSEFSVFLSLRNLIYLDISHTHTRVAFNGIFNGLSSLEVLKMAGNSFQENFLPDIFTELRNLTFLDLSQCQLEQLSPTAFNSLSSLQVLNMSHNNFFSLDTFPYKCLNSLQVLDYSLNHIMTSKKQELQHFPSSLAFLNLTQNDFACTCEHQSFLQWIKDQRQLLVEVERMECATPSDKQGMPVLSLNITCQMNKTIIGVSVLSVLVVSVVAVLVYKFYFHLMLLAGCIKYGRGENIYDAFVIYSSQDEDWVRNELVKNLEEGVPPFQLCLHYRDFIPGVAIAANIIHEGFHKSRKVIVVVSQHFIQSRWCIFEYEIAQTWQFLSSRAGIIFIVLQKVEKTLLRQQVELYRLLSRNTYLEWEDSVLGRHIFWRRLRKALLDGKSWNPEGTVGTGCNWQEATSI
UniProt P11276: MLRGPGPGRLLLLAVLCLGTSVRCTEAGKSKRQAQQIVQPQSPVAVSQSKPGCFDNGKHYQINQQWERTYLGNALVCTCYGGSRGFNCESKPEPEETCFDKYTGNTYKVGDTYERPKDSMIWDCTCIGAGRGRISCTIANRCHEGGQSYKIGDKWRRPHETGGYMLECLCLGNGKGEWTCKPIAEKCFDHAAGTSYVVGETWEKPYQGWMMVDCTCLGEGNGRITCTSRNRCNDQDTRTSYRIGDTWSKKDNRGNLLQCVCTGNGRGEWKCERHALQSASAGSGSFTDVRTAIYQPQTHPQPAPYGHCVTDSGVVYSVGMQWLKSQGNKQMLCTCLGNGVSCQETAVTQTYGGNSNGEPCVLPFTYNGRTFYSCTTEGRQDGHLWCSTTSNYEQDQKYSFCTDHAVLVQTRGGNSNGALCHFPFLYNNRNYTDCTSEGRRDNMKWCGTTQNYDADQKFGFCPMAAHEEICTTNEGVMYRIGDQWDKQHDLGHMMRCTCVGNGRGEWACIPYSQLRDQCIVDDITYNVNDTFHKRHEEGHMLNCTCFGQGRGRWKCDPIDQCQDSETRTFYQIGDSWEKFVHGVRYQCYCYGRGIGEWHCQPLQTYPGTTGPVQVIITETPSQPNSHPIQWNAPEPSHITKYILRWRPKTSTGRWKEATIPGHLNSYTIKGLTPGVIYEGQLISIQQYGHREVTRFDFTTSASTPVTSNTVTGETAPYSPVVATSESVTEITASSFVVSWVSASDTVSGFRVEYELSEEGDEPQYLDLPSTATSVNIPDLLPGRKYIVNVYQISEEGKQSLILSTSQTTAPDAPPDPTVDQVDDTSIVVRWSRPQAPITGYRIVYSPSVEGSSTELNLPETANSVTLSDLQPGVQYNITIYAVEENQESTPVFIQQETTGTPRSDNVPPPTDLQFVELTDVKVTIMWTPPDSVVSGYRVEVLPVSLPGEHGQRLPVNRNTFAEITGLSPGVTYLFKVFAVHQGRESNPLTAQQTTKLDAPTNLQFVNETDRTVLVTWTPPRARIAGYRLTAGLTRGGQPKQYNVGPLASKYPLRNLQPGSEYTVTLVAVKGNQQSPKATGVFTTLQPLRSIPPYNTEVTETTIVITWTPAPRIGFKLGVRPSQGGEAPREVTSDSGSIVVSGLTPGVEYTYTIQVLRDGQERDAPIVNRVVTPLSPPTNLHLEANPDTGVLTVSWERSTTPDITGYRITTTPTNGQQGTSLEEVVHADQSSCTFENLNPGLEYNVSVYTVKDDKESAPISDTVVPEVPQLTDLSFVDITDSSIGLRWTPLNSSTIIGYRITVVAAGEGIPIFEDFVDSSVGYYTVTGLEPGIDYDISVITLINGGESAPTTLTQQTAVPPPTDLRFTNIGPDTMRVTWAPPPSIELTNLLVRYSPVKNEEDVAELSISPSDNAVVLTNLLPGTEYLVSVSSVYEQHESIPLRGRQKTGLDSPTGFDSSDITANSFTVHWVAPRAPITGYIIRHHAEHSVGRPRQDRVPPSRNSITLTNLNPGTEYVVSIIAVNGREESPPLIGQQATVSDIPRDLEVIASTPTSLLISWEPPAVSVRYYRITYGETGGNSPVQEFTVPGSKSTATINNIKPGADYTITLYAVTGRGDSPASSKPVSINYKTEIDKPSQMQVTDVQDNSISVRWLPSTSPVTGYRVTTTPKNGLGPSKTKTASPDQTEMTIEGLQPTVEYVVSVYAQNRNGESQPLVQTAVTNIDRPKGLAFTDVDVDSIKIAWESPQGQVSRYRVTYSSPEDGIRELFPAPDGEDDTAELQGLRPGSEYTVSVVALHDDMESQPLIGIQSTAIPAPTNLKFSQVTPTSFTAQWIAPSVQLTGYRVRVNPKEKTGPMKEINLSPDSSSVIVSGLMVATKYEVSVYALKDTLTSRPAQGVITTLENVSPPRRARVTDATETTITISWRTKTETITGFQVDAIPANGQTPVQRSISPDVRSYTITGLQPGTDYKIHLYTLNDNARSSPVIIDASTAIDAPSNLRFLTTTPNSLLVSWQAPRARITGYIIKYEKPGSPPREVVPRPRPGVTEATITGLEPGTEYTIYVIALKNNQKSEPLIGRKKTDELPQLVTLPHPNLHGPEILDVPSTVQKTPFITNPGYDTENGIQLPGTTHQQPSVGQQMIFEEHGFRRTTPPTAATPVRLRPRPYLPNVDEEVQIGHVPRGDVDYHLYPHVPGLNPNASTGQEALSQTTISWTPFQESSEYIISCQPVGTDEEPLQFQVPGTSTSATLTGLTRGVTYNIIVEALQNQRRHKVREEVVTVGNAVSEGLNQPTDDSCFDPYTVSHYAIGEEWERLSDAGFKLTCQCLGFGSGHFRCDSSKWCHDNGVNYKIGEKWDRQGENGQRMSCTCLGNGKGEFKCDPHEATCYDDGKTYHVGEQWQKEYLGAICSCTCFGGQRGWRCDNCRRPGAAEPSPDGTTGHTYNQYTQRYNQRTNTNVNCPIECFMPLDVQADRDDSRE

- binding: binds
Substance: EDA protein (recombinant fibronectin Extra domain A, from plasmid pET20bEDA1.2) (from UniProt P11276 1721-1810) (ligand)
